Data source: PubChem BioAssay AID1259331 (Drosophila RNAi Screening Center, 2017)
Assay: 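Genes whose knock-down changes cell survival under toxic zinc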 (primary screen). System: Drosophila S2R+ cells. Reagent: long dsRNA against Drosophila genes. Time to read-out: 5 days (4 days knock-down, then 1 day zinc). Challenge: zinc chloride at 15 mM final level for 1 day. Measurement: 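Total cellular ATP measured by luciferase luminescence as a viability proxy, turned into Z scores from three plate copies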. Scale: mean Z score: higher = more ATP than other wells, better survival under zinc; ATP luminescence: higher = more ATP, more viable cells. Hit rule: 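a reagent is called a hit when its Z score is above 1.5 or below -1.5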. Meaning of the calls: active = hit, ATP up or down; inactive = not a hit.
Here is a random part of about 3,100 reagents tested. 126 of all reagents (4.1%) were called active. 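Calls are per reagent; zinc was so toxic that few knock-downs lowered ATP further, so most hits raise ATP.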 The raw values are shown without normalisation. The record does not give: the amount of reagent.

no.	gene	amplicon	mean Z score	ATP luminescence, replicate 1	ATP luminescence, replicate 2	outcome
1	CG12061	DRSC20715	-0.211	38816	42574	inactive
2	CG12061	DRSC39829	-0.135	50995	57832	inactive
3	Tom7 (Translocase of outer membrane 7)	DRSC05135	0.0619	41771	45016	inactive
4	Tom7 (Translocase of outer membrane 7)	DRSC07113	-0.211	99085	67766	inactive
5	Ir41a (Ionotropic receptor 41a)	DRSC04730	-0.137	34176	42662	inactive
6	Ir41a (Ionotropic receptor 41a)	DRSC04875	-0.134	50858	39028	inactive
7	CG8630	DRSC16441	1.7	44771	84970	active
8	CG8630	DRSC24081	1.11	66649	74867	inactive
9	CG1632	DRSC17558	-0.906	60752	52504	inactive
10	CG1632	DRSC18110	-0.513	57099	58008	inactive
11	Tsp66E (Tetraspanin 66E)	DRSC09683	0.809	89069	72328	inactive
12	CG7840	DRSC03075	-0.337	53378	49418	inactive
13	CG7840	DRSC39867	-0.505	52480	51647	inactive
14	Sec24CD (Secretory 24CD)	DRSC00300	-1.03	43588	39508	inactive
15	CG31221	DRSC16217	-0.0996	35855	57202	inactive
16	CG31221	DRSC23748	-0.49	46955	60838	inactive
17	CG7720	DRSC16306	0.724	48594	58111	inactive
18	CG7720	DRSC16307	0.0269	49143	39250	inactive
19	CG10481	DRSC02063	0.57	60067	44960	inactive
20	CG10481	DRSC39539	0.062	50841	48843	inactive
21	Egfr (Epidermal growth factor receptor)	DRSC03871	0.475	51321	46040	inactive
22	Egfr (Epidermal growth factor receptor)	DRSC04613	-0.603	26719	27559	inactive
23	Egfr (Epidermal growth factor receptor)	DRSC36621	0.241	52710	50669	inactive
24	Egfr (Epidermal growth factor receptor)	DRSC36622	-0.108	46571	48479	inactive
25	spi (spitz)	DRSC03618	-0.192	51252	33010	inactive
26	spi (spitz)	DRSC29414	0.0273	60803	62844	inactive
27	Ir64a (Ionotropic receptor 64a)	DRSC09760	-0.0297	76663	59946	inactive
28	Ir64a (Ionotropic receptor 64a)	DRSC39692	0.16	61279	63375	inactive
29	CG31787	DRSC01632	-0.108	40965	40793	inactive
30	CG17928	DRSC02644	-0.18	49280	36113	inactive
31	CG17928	DRSC39554	-0.129	64199	55865	inactive
32	Syx17 (Syntaxin 17)	DRSC08591	0.0918	35136	33353	inactive
33	Zip102B (Zinc/iron regulated transporter-related protein 102B)	DRSC26001	0.0459	54664	56791	inactive
34	Zip102B (Zinc/iron regulated transporter-related protein 102B)	DRSC39739	-0.0895	56482	58454	inactive

Targets listed so far whose gene name starts with Z or z:
gene	amplicon	mean Z score	ATP luminescence, replicate 1	ATP luminescence, replicate 2	outcome
Zip102B (Zinc/iron regulated transporter-related protein 102B)	DRSC26001	0.0459	54664	56791	inactive
Zip102B (Zinc/iron regulated transporter-related protein 102B)	DRSC39739	-0.0895	56482	58454	inactive

The results go on:
no.	gene	amplicon	mean Z score	ATP luminescence, replicate 1	ATP luminescence, replicate 2	outcome
35	Gr43a (Gustatory receptor 43a)	DRSC06658	-0.0615	73786	69944	inactive
36	Gr43a (Gustatory receptor 43a)	DRSC39580	-0.305	55213	55165	inactive
37	CG8051	DRSC20077	-0.503	36130	40090	inactive
38	CG8051	DRSC26855	-0.365	64696	56568	inactive
39	CG10505	DRSC04075	-0.678	47561	49503	inactive
40	CG10505	DRSC39815	-0.466	42405	57347	inactive
41	Npl4 (Nuclear protein localization 4)	DRSC15615	4.5	92569	1.09e5	active
42	Npl4 (Nuclear protein localization 4)	DRSC15616	0.717	44445	69635	inactive
43	CG13784	DRSC00974	-0.179	38445	42696	inactive
44	Dolk (Dolichol kinase)	DRSC07143	1.1	82952	95228	inactive
45	Dolk (Dolichol kinase)	DRSC39578	-0.173	57785	58386	inactive
46	Ir25a (Ionotropic receptor 25a)	DRSC00462	0.226	55762	39318	inactive
47	Ir25a (Ionotropic receptor 25a)	DRSC26910	1.23	78153	77645	inactive
48	Nhe1 (Na[+]/H[+] hydrogen exchanger 1)	DRSC00762	-0.122	53190	55892	inactive
49	Nhe1 (Na[+]/H[+] hydrogen exchanger 1)	DRSC39761	-0.408	51904	48930	inactive
50	Fs(2)Ket (Female sterile (2) Ketel)	DRSC03328	-0.179	51545	55985	inactive
51	Fs(2)Ket (Female sterile (2) Ketel)	DRSC23439	-1.22	39525	38445	inactive
52	Nup58 (Nucleoporin 58kD)	DRSC16235	1.1	59174	72071	inactive
53	Nup58 (Nucleoporin 58kD)	DRSC27863	2.13	91945	87697	active
54	CG31106	DRSC14655	-0.0595	36370	57417	inactive
55	boss (bride of sevenless)	DRSC16916	-0.0361	37982	59651	inactive
56	boss (bride of sevenless)	DRSC25941	-0.06	52394	54459	inactive
57	plh (pasang lhamu)	DRSC12294	-0.525	65708	50841	inactive
58	CG32301	DRSC08613	0.267	78709	75055	inactive
59	CG32301	DRSC39589	0.111	65571	60275	inactive
60	ACXE (Adenylyl cyclase X E)	DRSC00847	0.031	49589	38925	inactive
61	CG7990	DRSC19296	-0.17	41891	45268	inactive
62	CG7990	DRSC23195	-0.012	48306	44377	inactive
63	CG7990	DRSC26580	-0.0417	59740	57357	inactive
64	MsR2 (Myosuppressin receptor 2)	DRSC08337	-0.0442	70079	71539	inactive
65	MsR2 (Myosuppressin receptor 2)	DRSC22440	0.507	61129	63684	inactive
66	MsR2 (Myosuppressin receptor 2)	DRSC26863	-0.172	60392	52315	inactive
67	CG6974	DRSC16160	-0.231	38816	53481	inactive
68	Tsp42En (Tetraspanin 42En)	DRSC06185	-0.31	79120	67577	inactive
